These results are taken from publication PMC5668434, “Modulation of telomere protection by the PI3K/AKT pathway” (Nature Communications, 2017).

Amino acid sequences for entries named in this document (tags omitted).
UniProt P70371, whole entry S344A: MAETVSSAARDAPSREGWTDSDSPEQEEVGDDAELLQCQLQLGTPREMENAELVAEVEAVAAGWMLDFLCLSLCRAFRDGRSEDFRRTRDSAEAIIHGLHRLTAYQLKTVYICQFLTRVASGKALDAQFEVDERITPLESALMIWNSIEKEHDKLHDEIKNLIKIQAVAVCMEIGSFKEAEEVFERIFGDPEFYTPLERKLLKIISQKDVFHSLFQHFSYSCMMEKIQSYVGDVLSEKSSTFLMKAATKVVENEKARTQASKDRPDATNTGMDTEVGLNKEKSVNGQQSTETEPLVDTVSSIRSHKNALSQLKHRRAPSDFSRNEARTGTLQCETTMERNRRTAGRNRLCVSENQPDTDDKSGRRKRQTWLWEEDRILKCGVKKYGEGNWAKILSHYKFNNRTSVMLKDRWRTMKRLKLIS
UniProt P70371, whole entry T248A: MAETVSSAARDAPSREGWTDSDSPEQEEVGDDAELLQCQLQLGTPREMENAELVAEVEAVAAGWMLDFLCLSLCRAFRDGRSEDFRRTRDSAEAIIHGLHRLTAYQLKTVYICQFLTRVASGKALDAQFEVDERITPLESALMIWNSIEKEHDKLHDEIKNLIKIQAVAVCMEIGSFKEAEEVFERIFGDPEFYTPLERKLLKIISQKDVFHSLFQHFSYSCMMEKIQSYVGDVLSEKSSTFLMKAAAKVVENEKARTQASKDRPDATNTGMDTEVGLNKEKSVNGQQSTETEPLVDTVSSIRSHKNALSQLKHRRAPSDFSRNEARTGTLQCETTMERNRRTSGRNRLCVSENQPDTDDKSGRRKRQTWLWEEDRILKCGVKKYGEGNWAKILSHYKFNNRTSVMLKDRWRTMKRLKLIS
UniProt P70371, whole entry T330A: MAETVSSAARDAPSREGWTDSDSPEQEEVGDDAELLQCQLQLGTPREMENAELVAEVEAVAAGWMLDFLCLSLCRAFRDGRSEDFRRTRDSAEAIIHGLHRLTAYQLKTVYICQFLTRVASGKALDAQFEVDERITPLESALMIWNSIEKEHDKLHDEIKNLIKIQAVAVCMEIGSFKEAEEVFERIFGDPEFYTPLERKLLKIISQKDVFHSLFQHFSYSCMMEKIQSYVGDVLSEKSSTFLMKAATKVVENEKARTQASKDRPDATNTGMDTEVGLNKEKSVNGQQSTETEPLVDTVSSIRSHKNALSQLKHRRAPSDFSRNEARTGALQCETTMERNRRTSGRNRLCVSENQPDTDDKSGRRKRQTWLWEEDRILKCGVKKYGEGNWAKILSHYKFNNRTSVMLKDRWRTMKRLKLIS

Some targets named below: GST-TRF1 S344A (mouse) (UniProt P70371); GST-TRF1 T248A (mouse) (UniProt P70371); GST-TRF1 T330A (mouse) (UniProt P70371).
Holding throughout (assay): EMSA
Common to all, as to details: 1 ug protein; 20 mM HEPES-KOH pH 7.9, 150 mM KCl, 5% glycerol, 4% Ficoll, 1 mM EDTA, 0.1 mM MgCl2, 0.5 mM DTT, 20 ug BSA, 1 ug poly(dI-dC), 30 ul, 20 min, room temperature; recombinant protein; protein details: N-terminal 6xHis and GST; label: 32P 5'-end label (T4 PNK)

The exact form of at least one protein or probe is not confirmed. For part of these data: A weaker result is weaker than the reference pair of the same experiment.

As for “GGGTTAGGGTTAGGGTTAGGGTTAGGGTTAGGGTTAGGGTTAGGGCCCCTC (double strand) [ds(TTAGGG)7 telomeric probe]”, the binding result with GST-TRF1 S344A (mouse) is on record as “binds more weakly”; with GST-TRF1 T248A (mouse), “binds”; in the data set with GST-TRF1 T330A (mouse) it was “binds more weakly”.
